Experimental data as given in PubChem BioAssay AID330 (DTP/NCI, 2004).
The list shows only some results of the screen, not a fair sample: it is rich in T/C values a quarter to a half above the control, in often repeated tests (any T/C) and in doses without a T/C. Other doses and runs of a compound stand elsewhere. T/C: endpoint of the treated group in % of that of the vehicle group. Some doses have a count of surviving animals in place of a T/C: the source files T/C as zero there, which appears to mark a toxic dose or a test without result, not a measured value. Some doses without a T/C left all or most animals alive at the check, yet need not have been tolerated: survival well below the control is almost never listed, so the zero probably covers shortened survival too. Survivors were counted at the toxicity check, usually on the fifth day, unless a day is given; later deaths do not show. Schedules are NCI's codes, read here as Q, the interval in days (D) or hours (H), X, the number of doses. For survival time, the PubChem record calls one and a half times the control and up active, and a quarter to a half above the control has no call in these data; cut-offs in other NCI protocols can differ. Some T/C values are followed by the survivors on the day toxicity was checked, most often the fifth; without a count, all were alive then.

System: P388 leukemia ip, CD2F1 mice, survival T/C
Assay: NCI In Vivo Anticancer Drug Screen. Data for tumor model P388 Leukemia (intraperitoneal) in CD2F1 (CDF1) mice
Conditions: T/C endpoint: median survival time, higher T/C = longer survival
[1] = dose: 100.0 mg/kg/injection, schedule: Q04DX003 (ip), vehicle: saline
[2] = dose: 100.0 mg/kg/injection, schedule: Q01DX009 (ip), vehicle: saline with Tween-80
[3] = dose: 200.0 mg/kg/injection, schedule: Q04DX003 (ip), vehicle: saline
[4] = dose: 400.0 mg/kg/injection, schedule: Q04DX003 (ip), vehicle: saline

## C[n+]1ccc2c([N+](=O)[O-])cccc2c1
dose: 25.0 mg/kg/injection, schedule: Q01DX005 (ip), vehicle: saline
  survivor count: 0 of 5
dose: 50.0 mg/kg/injection, schedule: Q01DX005 (ip), vehicle: saline
  survivor count: 0 of 5
dose: 100.0 mg/kg/injection, schedule: Q01DX005 (ip), vehicle: saline
  survivor count: 0 of 5
dose: 200.0 mg/kg/injection, schedule: Q01DX005 (ip), vehicle: saline
  survivor count: 0 of 5

## C1=CN2CC(c3ccccc3)N=C2S1 (stereo not given)
dose: 50.0 mg/kg/injection, schedule: Q01DX009 (ip), vehicle: other
  survivor count: 0 of 6
dose: 100.0 mg/kg/injection, schedule: Q01DX009 (ip), vehicle: other
  survivor count: 0 of 6
dose: 200.0 mg/kg/injection, schedule: Q01DX009 (ip), vehicle: other
  survivor count: 0 of 6
dose: 400.0 mg/kg/injection, schedule: Q01DX009 (ip), vehicle: other
  survivor count: 0 of 6
dose: 800.0 mg/kg/injection, schedule: Q01DX009 (ip), vehicle: other
  survivor count: 0 of 6
dose: 1600.0 mg/kg/injection, schedule: Q01DX009 (ip), vehicle: other
  survivor count: 0 of 6

## FC(F)(F)c1ccc2c(c1)N(CCCN1CCN(CCCl)CC1)c1ccccc1S2
dose: 50.0 mg/kg/injection, schedule: Q04DX003 (ip), vehicle: saline
  survivor count: 6 of 6
[1]
  survivor count: 5 of 6

## COC(=O)c1ccccc1NC(Cc1ccccc1)=NC(C)(C)C
dose: 200.0 mg/kg/injection, schedule: Q01DX009 (ip), vehicle: saline with Tween-80
  survivor count: 6 of 6

## COc1ccc2cc3c(nc2c1N)C(=O)C(N1CC1)=C(N1CC1)C3=O
dose: 50.0 mg/kg/injection, schedule: Q01DX005 (ip), vehicle: Klucel (hydroxypropylcellulose) (HPC)
  T/C: 131 % of control
dose: 100.0 mg/kg/injection, schedule: Q01DX005 (ip), vehicle: Klucel (hydroxypropylcellulose) (HPC)
  T/C: 135 % of control
dose: 200.0 mg/kg/injection, schedule: Q01DX005 (ip), vehicle: Klucel (hydroxypropylcellulose) (HPC)
  T/C: 135 % of control [5 of 6 alive]

## O=c1c2ccccc2[nH]c2c([N+](=O)[O-])ccc(Oc3ccc(CCc4ccc(Oc5ccc([N+](=O)[O-])c6[nH]c7ccccc7c(=O)c56)cc4)cc3)c12
dose: 50.0 mg/kg/injection, schedule: Q01DX009 (ip), vehicle: saline with Tween-80
  survivor count: 6 of 6
[2]
  survivor count: 6 of 6

## Cc1ccc(O)c(N=Nc2c(O)cc(S(=O)(=O)O)c3ccccc23)c1
dose: 200.0 mg/kg/injection, schedule: Q01DX009 (ip), vehicle: suspension in saline
  survivor count: 1 of 6

## O=[N+]([O-])c1cc(Cl)ccc1Cl
dose: 400.0 mg/kg/injection, schedule: Q01DX009 (ip), vehicle: saline with Tween-80
  survivor count: 3 of 6

## COc1cccc2c1C(=O)c1c(O)c3c(c(O)c1C2=O)C[C@@](O)(C(=O)COC(C)=O)C[C@@H]3OC1CC(N)C(O)C(C)O1 (stereo not given in full)
dose: 3.0 mg/kg/injection, schedule: Q01DX009 (ip), vehicle: saline sonified
  survivor count: 6 of 6

## C[n+]1cccc(NC(=O)c2ccc(NC(=O)c3ccc(C(=O)Nc4ccc(NC(=N)N)cc4)cc3)cc2)c1
dose: 6.25 mg/kg/injection, schedule: Q04DX003 (ip), vehicle: saline
  T/C: 140 % of control
dose: 18.7 mg/kg/injection, schedule: Q01DX009 (ip), vehicle: saline
  survivor count: 4 of 6
dose: 25.0 mg/kg/injection, schedule: Q04DX003 (ip), vehicle: saline
  survivor count: 2 of 6
[1]
  survivor count: 0 of 6
[3]
  survivor count: 0 of 6
[4]
  survivor count: 0 of 6

## CN(/N=C\c1ccccc1)C(=N)N(C)/N=C/c1ccccc1
dose: 400.0 mg/kg/injection, schedule: Q01DX001 (ip), vehicle: Klucel (hydroxypropylcellulose) (HPC)
  survivor count: 3 of 6

## CCOC(=O)C1=C(C(=O)c2ccccc2)C(c2ccc([N+](=O)[O-])cc2)C(C(=O)c2ccccc2)=C(C(=O)OCC)N1
dose: 60.0 mg/kg/injection, schedule: Q01DX005 (ip), vehicle: Klucel (hydroxypropylcellulose) (HPC)
  survivor count: 3 of 6
dose: 120.0 mg/kg/injection, schedule: Q01DX005 (ip), vehicle: Klucel (hydroxypropylcellulose) (HPC)
  survivor count: 1 of 6
dose: 240.0 mg/kg/injection, schedule: Q01DX005 (ip), vehicle: Klucel (hydroxypropylcellulose) (HPC)
  survivor count: 0 of 6

## Cc1c(C(=N)C(C#N)C#N)c(=N)oc2c1ccc1ccccc12
[2]
  survivor count: 4 of 6

## CCN(CC)CCCNc1cnc2ccc(OC)cc2n1
[1]
  survivor count: 3 of 6
[3]
  survivor count: 1 of 6
[4]
  survivor count: 0 of 6
